The assay addresses T1, endogenous KDM2B (mouse (endogenous in ESCs)) (UniProt Q6P1G2).
T1 sequence: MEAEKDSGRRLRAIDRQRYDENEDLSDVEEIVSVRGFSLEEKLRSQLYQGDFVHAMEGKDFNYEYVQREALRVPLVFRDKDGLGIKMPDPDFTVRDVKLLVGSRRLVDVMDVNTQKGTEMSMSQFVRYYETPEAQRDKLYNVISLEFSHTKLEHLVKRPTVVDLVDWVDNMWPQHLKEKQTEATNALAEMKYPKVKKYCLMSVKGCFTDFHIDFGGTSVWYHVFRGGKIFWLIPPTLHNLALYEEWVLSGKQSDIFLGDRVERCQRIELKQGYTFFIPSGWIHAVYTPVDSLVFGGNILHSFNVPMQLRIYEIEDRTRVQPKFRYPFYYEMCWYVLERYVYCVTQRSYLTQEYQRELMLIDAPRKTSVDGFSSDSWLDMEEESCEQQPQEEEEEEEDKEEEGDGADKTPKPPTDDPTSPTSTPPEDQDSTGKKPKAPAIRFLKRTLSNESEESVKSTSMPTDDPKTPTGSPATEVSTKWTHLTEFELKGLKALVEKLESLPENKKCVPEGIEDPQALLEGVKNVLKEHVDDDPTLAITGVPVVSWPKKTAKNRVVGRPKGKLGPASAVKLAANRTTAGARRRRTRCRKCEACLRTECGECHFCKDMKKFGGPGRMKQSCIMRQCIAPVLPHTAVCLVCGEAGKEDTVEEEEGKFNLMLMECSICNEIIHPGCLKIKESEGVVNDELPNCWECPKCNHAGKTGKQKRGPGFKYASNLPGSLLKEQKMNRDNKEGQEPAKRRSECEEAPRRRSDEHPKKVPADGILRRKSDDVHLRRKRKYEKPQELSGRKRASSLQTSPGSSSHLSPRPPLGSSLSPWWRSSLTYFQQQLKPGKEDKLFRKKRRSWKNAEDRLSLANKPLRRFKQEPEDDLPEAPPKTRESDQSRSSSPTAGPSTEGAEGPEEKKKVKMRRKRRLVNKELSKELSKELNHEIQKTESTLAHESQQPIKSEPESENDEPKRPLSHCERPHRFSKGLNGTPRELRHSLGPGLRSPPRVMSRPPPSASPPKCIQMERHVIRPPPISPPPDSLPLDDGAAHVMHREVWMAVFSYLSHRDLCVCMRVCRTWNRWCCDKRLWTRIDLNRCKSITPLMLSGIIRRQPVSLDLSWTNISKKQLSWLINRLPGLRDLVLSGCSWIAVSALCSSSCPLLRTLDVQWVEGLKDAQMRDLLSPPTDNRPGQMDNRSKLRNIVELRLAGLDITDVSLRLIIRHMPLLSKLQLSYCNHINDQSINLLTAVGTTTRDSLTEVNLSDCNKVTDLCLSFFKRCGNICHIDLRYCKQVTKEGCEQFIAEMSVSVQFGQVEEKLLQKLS
As to the kind of experiment: co-IP; endogenous KDM2B immunoprecipitated from 0.5 mg mouse ESC nuclear extract in BC150, overnight at 4°C, protein A beads, washed with BC300; western blot; Flag immunoprecipitation as negative control. A general note: A western blot detects proteins with antibodies after separation by electrophoresis.

Amino acid sequences for entries named in this document (tags omitted).
UniProt Q61188: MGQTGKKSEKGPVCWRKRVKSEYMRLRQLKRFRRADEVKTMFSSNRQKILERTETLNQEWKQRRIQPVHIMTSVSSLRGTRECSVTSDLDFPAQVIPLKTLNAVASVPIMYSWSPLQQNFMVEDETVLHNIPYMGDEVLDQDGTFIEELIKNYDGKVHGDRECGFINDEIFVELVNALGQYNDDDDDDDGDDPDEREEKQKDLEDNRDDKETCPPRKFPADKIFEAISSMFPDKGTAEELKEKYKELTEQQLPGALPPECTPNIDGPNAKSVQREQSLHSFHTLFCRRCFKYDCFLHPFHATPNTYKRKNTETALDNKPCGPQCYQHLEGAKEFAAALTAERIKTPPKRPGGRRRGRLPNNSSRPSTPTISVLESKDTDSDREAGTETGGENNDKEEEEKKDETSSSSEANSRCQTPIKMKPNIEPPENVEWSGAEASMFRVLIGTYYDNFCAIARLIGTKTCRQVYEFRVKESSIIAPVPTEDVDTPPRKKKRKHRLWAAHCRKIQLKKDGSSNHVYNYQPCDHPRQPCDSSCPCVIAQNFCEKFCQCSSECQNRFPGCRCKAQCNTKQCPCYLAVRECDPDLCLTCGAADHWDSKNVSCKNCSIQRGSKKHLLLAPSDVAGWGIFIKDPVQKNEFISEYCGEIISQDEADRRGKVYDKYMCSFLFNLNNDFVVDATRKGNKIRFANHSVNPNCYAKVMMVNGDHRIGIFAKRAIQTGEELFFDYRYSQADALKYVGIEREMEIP
UniProt Q9CQJ4: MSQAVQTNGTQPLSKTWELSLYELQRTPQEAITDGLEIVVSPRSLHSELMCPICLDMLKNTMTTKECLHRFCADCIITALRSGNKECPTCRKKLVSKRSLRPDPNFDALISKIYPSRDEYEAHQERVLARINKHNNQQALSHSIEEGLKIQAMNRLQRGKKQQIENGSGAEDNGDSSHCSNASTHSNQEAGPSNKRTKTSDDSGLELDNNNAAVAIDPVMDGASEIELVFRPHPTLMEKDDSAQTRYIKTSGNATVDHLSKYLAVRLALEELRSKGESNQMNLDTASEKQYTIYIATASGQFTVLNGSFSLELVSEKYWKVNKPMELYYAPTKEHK

Experimental findings from publication PMC3524939 are described below.

These are yes or no findings as the source states them, for the method shown. In cells and extracts the contact can be indirect. Some binding calls cover weakened binding; strength is not graded here.

Regarding EZH2 (from UniProt Q61188 1-746), the binding entry is “no binding”. For RING1B (from UniProt Q9CQJ4 1-336) the value was “binds”.
